The list does not hold the whole screen: it gathers tests that were run many times, whatever their T/C, doses with no T/C, and many T/C values between a quarter and a half above the control. Other doses and runs of a compound stand elsewhere. T/C: endpoint of the treated group in % of that of the vehicle group. Schedule codes are those of the source, read here as Q, the interval in days (D) or hours (H), X, the number of doses. Some entries were tested several times; the results are listed from low to high. Some T/C values carry the count of animals alive at the toxicity check (mostly the fifth day); where none is given, no animal had died by that day. Some entries give survivors of the animals treated and no T/C: the source holds a T/C of zero for them, seemingly a mark for toxic or unscored doses. Counts of survivors are from the toxicity check (mostly the fifth day) where no day follows; animals may have died later.
Test system: BDF1 mice, colon carcinoma 38 sc, T/C %
Test: NCI In Vivo Anticancer Drug Screen. Data for tumor model Colon Carcinoma 38 (subcutaneous) in B6D2F1 (BDF1) mice
Details: T/C endpoint: median tumor weight (est.), higher T/C = larger tumour; for T/C: evaluated on day 20
How it was run: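 Compound antitumor activity was assessed in mice carrying transplantable tumors. Survival or tumor size was recorded, and each value is the treated-group measurement divided by that of the vehicle-treated control group.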

[1] = dose: 25.0 mg/kg/injection, schedule: Q07DX002 (ip), vehicle: saline with Tween-80
[2] = dose: 50.0 mg/kg/injection, schedule: Q07DX002 (ip), vehicle: saline with Tween-80
[3] = dose: 100.0 mg/kg/injection, schedule: Q07DX002 (ip), vehicle: saline with Tween-80
[4] = dose: 200.0 mg/kg/injection, schedule: Q07DX002 (ip), vehicle: saline with Tween-80
[5] = dose: 800.0 mg/kg/injection, schedule: Q07DX002 (ip), vehicle: saline with Tween-80
[6] = dose: 25.0 mg/kg/injection, schedule: Q07DX002 (ip), vehicle: saline
[7] = dose: 200.0 mg/kg/injection, schedule: Q07DX002 (ip), vehicle: saline
[8] = dose: 6.25 mg/kg/injection, schedule: Q07DX002 (ip), vehicle: Klucel (hydroxypropylcellulose) (HPC)
[9] = dose: 12.5 mg/kg/injection, schedule: Q07DX002 (ip), vehicle: Klucel (hydroxypropylcellulose) (HPC)
[10] = dose: 50.0 mg/kg/injection, schedule: Q07DX002 (ip), vehicle: Klucel (hydroxypropylcellulose) (HPC)
[11] = dose: 100.0 mg/kg/injection, schedule: Q07DX002 (ip), vehicle: Klucel (hydroxypropylcellulose) (HPC)
[12] = dose: 200.0 mg/kg/injection, schedule: Q07DX002 (ip), vehicle: Klucel (hydroxypropylcellulose) (HPC)
[13] = dose: 400.0 mg/kg/injection, schedule: Q07DX002 (ip), vehicle: Klucel (hydroxypropylcellulose) (HPC)

CC(=O)Nc1ccc(O)c(O)c1
T/C [1]: 128 [9 of 10 alive on day 20] and 149 % of control
T/C [2]: 128 % of control
T/C [3]: 139 % of control
T/C [4]: 148 % of control
T/C [5]: 127 % of control

C(COCCOCC1CO1)OCCOCC1CO1 (stereo not given)
T/C [1]: 142 % of control
T/C [6]: 125 % of control
T/C [2]: 126 % of control
T/C [3]: 140 % of control
T/C [7]: 126 % of control

C[N+](C)(C)c1cc2c(nn1)Nc1ccccc1S2
T/C [8]: 143 % of control [9 of 10 alive]
T/C [9]: 129 % of control
T/C [10]: 125 % of control
T/C [11]: 132 % of control

Nc1ccc(S(=O)(=O)Nc2cnc3c(Cl)cccc3n2)cc1
survivor count (dose: 500.0 mg/kg/injection, schedule: Q07DX002 (ip), vehicle: DMSO): 0 of 10 on day 20
survivor count (dose: 1000.0 mg/kg/injection, schedule: Q07DX002 (ip), vehicle: DMSO): 0 of 10 on day 20
survivor count (dose: 2000.0 mg/kg/injection, schedule: Q07DX002 (ip), vehicle: DMSO): 0 of 10 on day 20

CC(=O)O[C@@H]1CO[C@H]2O[C@H]3[C@@H](C(C=O)=C[C@H](O)[C@@H]4C5=C(C(C)C)CC[C@]5(C)CC[C@@]34C)[C@@]2(O)C1=O
survivor count (dose: 24.0 mg/kg/injection, schedule: Q07DX002 (ip), vehicle: Klucel (hydroxypropylcellulose) (HPC)): 4 of 10 on day 20
survivor count (dose: 48.0 mg/kg/injection, schedule: Q07DX002 (ip), vehicle: Klucel (hydroxypropylcellulose) (HPC)): 1 of 10 on day 20

C1CC[N-]CC1.C1CC[N-]CC1.C1CC[N-]CC1.[Cl][Rh]([Cl])[Cl]
T/C [6]: 128 % of control
T/C [7]: 131 % of control

O=C(Nc1cccc(Cl)c1)ON1C(=O)C2C(C1=O)C1(Cl)C(Cl)C(Cl)C2(Cl)C1(Cl)Cl (stereo not given)
T/C [2]: 131 % of control
survivor count [5]: 0 of 10 on day 20

O=S(=O)(SC(S(=O)(=O)c1ccccc1)S(=O)(=O)c1ccccc1)c1ccccc1
T/C [12]: 146 % of control
T/C (dose: 800.0 mg/kg/injection, schedule: Q07DX002 (ip), vehicle: Klucel (hydroxypropylcellulose) (HPC)): 137 % of control [9 of 10 alive on day 20]

COc1cc(C[C@H]2c3cc(OC)c(OC)cc3CCN2C)c(Oc2cc3c(cc2OC)-c2c(OC)c(OC)cc4c2[C@H](C3)N(C)CC4)cc1OC
T/C (dose: 200.0 mg/kg/injection, schedule: Q04DX003 (ip), vehicle: saline): 142 % of control
survivor count (dose: 400.0 mg/kg/injection, schedule: Q01DX005 (ip), vehicle: saline): 4 of 10
T/C (dose: 400.0 mg/kg/injection, schedule: Q04DX003 (ip), vehicle: saline): 125 % of control

C[CH2][Sn]([CH2]C)([O]S(C)(=O)=O)[O]S(C)(=O)=O
T/C (dose: 1.56 mg/kg/injection, schedule: Q07DX002 (ip), vehicle: saline): 129 % of control [9 of 10 alive on day 20]
survivor count [6]: 1 of 10 on day 20 and 6 of 10 on day 20
survivor count (dose: 50.0 mg/kg/injection, schedule: Q07DX002 (ip), vehicle: saline): 0 of 10 on day 20

C/C=C/c1cc2n(c1)C(=O)c1cc(OC3OC(C)C(NC)C(C)(O)C3O)c(C)c(O)c1NC2O (stereo not given)
survivor count (dose: 32.0 micrograms/kg/injection, schedule: Q07DX002 (ip), vehicle: saline): 0 of 10 on day 20

CC1CN=C(c2ccc(NC(=O)c3ccc(C(=O)Nc4ccc(C5=NCC(C)N5)cc4)cc3)cc2)N1 (stereo not given)
T/C (dose: 200.0 mg/kg/injection, schedule: Q07DX003 (ip), vehicle: Klucel (hydroxypropylcellulose) (HPC)): 126 % of control

Cc1c(-c2ccc(C3CCCCC3)cc2)nc2ccc(F)cc2c1C(=O)O
T/C (dose: 200.0 mg/kg/injection, schedule: Q07DX002 (ip), vehicle: Klucel + Tween-80): 130 % of control [9 of 10 alive on day 20]

CC(=O)NC(CCc1ccc(Cl)c(Cl)c1)c1cccc(O)c(=O)c1 (stereo not given)
T/C [8]: 132 % of control
T/C [9]: 140 % of control
T/C [10]: 132 % of control

CC1(O)C=CC(=O)C=C1
T/C (dose: 12.5 mg/kg/injection, schedule: Q07DX002 (ip), vehicle: water): 142 % of control
T/C (dose: 25.0 mg/kg/injection, schedule: Q07DX002 (ip), vehicle: water): 133 % of control
survivor count (dose: 100.0 mg/kg/injection, schedule: Q07DX002 (ip), vehicle: water): 0 of 10 on day 20
survivor count (dose: 200.0 mg/kg/injection, schedule: Q07DX002 (ip), vehicle: water): 0 of 10 on day 20

OCC1(CO)COC2(CCCCC2)N1
T/C [7]: 132 and 147 % of control

BrC[P+](CBr)(CBr)CBr
T/C [2]: 134 % of control
survivor count [4]: 3 of 10 on day 20

CS(C)=O
T/C (dose: 1.5 grams/kg/injection, schedule: Q07DX003 (ip), vehicle: saline): 129 % of control

O=NN(CCF)C(=O)NC1CCCCC1
survivor count [10]: 2 of 10 on day 20
survivor count [11]: 0 of 10 on day 20
survivor count [12]: 0 of 10 on day 20
survivor count [13]: 0 of 10 on day 20

CN(C)N=Nc1ccccc1
survivor count [12]: 0 of 10 on day 20 and 2 of 10 on day 20

NS(=O)(=O)OCCCCCCCOS(N)(=O)=O
survivor count (dose: 400.0 mg/kg/injection, schedule: Q07DX002 (ip), vehicle: saline with Tween-80): 0 of 10 on day 20 and 1 of 10 on day 20
survivor count [5]: 0 of 10 on day 20

COC1(OC)C2C=CC1CC2
T/C (dose: 12.5 mg/kg/injection, schedule: Q07DX002 (ip), vehicle: saline with Tween-80): 133 % of control [9 of 10 alive on day 20]

C/C=C/C1=CC(=O)C(O)C1O (stereo not given)
T/C (dose: 45.0 mg/kg/injection, schedule: Q07DX002 (ip), vehicle: water): 130 % of control

COc1ccc(-c2cc(=O)c3cccc(CC(=O)O)c3o2)cc1OC
T/C [10]: 147 % of control
survivor count [13]: 2 of 10 on day 20

NC(=O)c1ncn(C2OC(CO)C(O)C2O)c1O (stereo not given)
T/C [10]: 125 % of control

CC(C)NC(=O)N(CCCCBr)N=O
survivor count [13]: 1 of 10 on day 20

CCOC(=O)C1=C(C#N)C2(CCC(OCc3ccccc3)CC2)C(=O)O1 (stereo not given)
T/C (dose: 50.0 mg/kg/injection, schedule: Q07DX002 (ip), vehicle: suspension in saline): 149 % of control
T/C (dose: 200.0 mg/kg/injection, schedule: Q07DX002 (ip), vehicle: suspension in saline): 145 % of control
